# Percent effect of library compounds

Chains of the proteins cited; added tags and fusions are not shown. Residues count along the entry.
UniProt Q8IDJ8, 1-583: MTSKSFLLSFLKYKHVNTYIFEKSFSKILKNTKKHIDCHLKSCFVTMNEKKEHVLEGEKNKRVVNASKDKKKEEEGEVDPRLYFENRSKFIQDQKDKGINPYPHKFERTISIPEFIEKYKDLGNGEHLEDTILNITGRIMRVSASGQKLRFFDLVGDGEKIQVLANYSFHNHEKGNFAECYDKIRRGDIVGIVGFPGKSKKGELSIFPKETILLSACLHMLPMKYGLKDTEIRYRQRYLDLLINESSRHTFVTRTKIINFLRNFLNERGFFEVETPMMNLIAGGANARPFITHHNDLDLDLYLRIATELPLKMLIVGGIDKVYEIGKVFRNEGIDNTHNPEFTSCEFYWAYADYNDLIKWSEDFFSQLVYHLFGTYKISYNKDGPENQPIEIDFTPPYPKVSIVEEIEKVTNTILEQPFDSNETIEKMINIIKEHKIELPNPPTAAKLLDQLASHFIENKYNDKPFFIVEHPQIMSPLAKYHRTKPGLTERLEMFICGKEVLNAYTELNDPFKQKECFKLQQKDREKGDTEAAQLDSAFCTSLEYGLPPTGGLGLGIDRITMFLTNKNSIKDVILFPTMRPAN
UniProt P9WFT3, whole entry: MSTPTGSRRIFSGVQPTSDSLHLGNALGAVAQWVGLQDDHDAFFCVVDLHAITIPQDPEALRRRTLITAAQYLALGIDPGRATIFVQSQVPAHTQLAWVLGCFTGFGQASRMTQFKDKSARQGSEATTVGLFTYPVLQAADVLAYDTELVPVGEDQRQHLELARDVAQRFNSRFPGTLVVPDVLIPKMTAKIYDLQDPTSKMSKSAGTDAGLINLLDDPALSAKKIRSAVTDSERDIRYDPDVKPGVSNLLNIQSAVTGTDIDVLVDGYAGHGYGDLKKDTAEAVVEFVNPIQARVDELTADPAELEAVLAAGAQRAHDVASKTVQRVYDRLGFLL
UniProt P9WPC5, whole entry: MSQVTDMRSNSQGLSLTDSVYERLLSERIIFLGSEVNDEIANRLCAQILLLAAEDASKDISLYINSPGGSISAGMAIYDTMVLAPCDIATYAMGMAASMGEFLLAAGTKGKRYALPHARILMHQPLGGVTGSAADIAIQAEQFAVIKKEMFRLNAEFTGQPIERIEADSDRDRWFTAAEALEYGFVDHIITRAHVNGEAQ
UniProt P9WPC3, whole entry partner: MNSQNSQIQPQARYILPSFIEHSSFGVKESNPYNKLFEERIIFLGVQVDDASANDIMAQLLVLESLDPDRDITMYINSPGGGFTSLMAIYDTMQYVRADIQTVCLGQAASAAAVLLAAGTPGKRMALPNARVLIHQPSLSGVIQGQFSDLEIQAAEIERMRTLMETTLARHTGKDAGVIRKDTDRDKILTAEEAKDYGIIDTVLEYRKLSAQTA

A: 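Lysine-tRNA ligase, Plasmodium falciparum 3D7 (UniProt Q8IDJ8). Enzyme assay of the cytosolic lysyl-tRNA synthetase in 384-well plates, read by luminescence. Tested at 30 µM. Higher reads as stronger inhibition, judged from the few compounds that gave an IC50. Size under these conditions: about 69,000 compounds, about 49 of them at 50% or above in at least one test.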
B: 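Enzyme assay of tryptophanyl-tRNA synthetase; the read-out is not stated. Target: Tryptophan-tRNA ligase, Mycobacterium tuberculosis (UniProt P9WFT3). Tested at 10 µM. Higher most likely means stronger inhibition; the record gives no direction and few retests gave an IC50. About 65,000 compounds were tested under these conditions; 0.098% (about 64) showed 50% or more at least once.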
C: 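ClpP1P2, Mycobacterium tuberculosis (UniProt P9WPC5 and UniProt P9WPC3). Protease assay of ClpP1P2, read by the AMC dye that it sets free. Concentration: 50 µM. Direction is inferred from only a few compounds that gave an IC50; most scored high, so higher reads as stronger inhibition. Most other retested compounds had strongly negative values. Of about 69,000 compounds tested this way, about 10 (0.015%) reached 50% or more in at least one test.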

Results are given as percent effect. The controls that fix the scale are not given in the record; negative values are as filed. Compounds were drawn at random from those tested, without regard to their results.

* CCn1nccc1CN(C)C(=O)Cn1nc(C)c(C)c1C : A: 0.04271%; B: 5.078%; C: -8.286%
* CC(CCc1ccccc1)CC(=O)NC1CCN(CC(N)=O)CC1 (stereo not given) : A: 3.782%; B: 1.847%; C: -5.75%
* CC(C)(C(=O)NCc1ccc(C#N)cc1)n1cc(Br)cn1 : A: 6.291%; B: 8.402%; C: 2.58%
* CC(C)=CCN1C[C@H]2CC[C@@H]1CN(CCC(=O)NCc1ccco1)C2 : A: -0.681%; B: 3.391%; C: -17.27%
* CCNC(=O)Nc1c(C)cnn1Cc1cc(F)ccc1F : A: 5.634%; B: -3.052%; C: -8.411%
* COc1cccc2c1OCC(Cc1cc(C(=O)N3CCCC3)ccn1)C2 (stereo not given) : A: 3.206%; B: 5.815%; C: 0.4396%
* O=C(NCCNc1ncccn1)C1CCN(C(=O)C2CC2)CC1 : A: 6.403%; B: -8.066%; C: -1.896%
* CCOC(=O)Cc1n[nH]c(-c2cncc(Br)c2)n1 : A: 4.094%; B: 2.151%; C: -3.952%
* CC(C)(C)NC(=O)C1CSCN1S(=O)(=O)c1cccc(F)c1 (stereo not given) : A: 3.814%; B: -1.069%; C: -5.121%
* COc1ccccc1CNc1ncnc2c1NC(=O)CN2 : A: 11.82%; B: -6.899%; C: -132.7%
* COc1ccccc1NC(=O)NC(C)c1nc[nH]n1 (stereo not given) : A: 2.236%; B: -1.495%; C: 1.906%
* COCCN1CCC(C(=O)c2cc(F)ccc2F)CC1 : A: 0.4745%; B: -6.316%; C: -10.92%
* Cc1csc(N2CCCN(Cc3noc(C)n3)CC2)n1 : A: -0.4113%; B: -1.267%; C: -3.617%
* Cn1nccc1-c1nc2c(cc1C(=O)O)CCN(CC1CC1)CC2 : A: -3.428%; B: 10.55%; C: -1.802%
* Cc1nc(CN(C)C2CCN(CCC(=O)N3CCOCC3)C2)no1 (stereo not given) : A: -3.478%; B: 13.72%; C: -28.19%
* COc1cccc(N2CCN(Cc3cc(C)cc(F)c3)CC2=O)c1 : A: 7.152%; B: 2.935%; C: 1.108%
* CCc1cc(NC(CCO)c2ccc(OC)cc2)n2nccc2n1 (stereo not given) : A: 0.979%; B: 0.5084%; C: -7.234%
* c1ncc(-c2cn(CCSc3cnn[nH]3)nn2)cn1 : A: 3.541%; B: 0.9441%; C: -9.028%
* Cc1nc2ccccc2nc1CN1CCOC(Cn2cccn2)C1 (stereo not given) : A: -2.039%; B: 0.7099%; C: -4.744%
* Clc1ccccc1OC1CN(CC2CCOC2)C1 (stereo not given) : A: 1.157%; B: -4.103%; C: -15.75%
* COc1cccc(C2SCC(=O)Nc3ccsc32)c1 (stereo not given) : A: 0.9735%; B: -2.462%; C: 1.292%
* C[C@H]1C[C@@H]2CCN(C(=O)c3cccn3C)C[C@H]2O1 : A: 1.059%; B: -1.133%; C: -4.215%
* CSc1ccsc1C(=O)NCCNC(=O)C1CC1 : A: 2.969%; B: 2.834%; C: -9.556%
* CC1CN(c2ccc(NC(=O)Cn3cccn3)cc2)CCO1 (stereo not given) : A: 0.2987%; B: -0.7776%; C: -6.692%
* COc1ccc2c(ccn2CCC(=O)NCCCC(=O)O)c1 : A: 1.471%; B: 0%; C: -2.633%
* Cc1c(C(=O)NC(CN2CCCC2=O)c2ccccc2)cnn1C (stereo not given) : A: -0.3032%; B: 2.987%; C: 2.572%

3 of the entries, repeated:

* c1ncc(-c2cn(CCSc3cnn[nH]3)nn2)cn1 | A: 3.541%; B: 0.9441%; C: -9.028%
* CCc1cc(NC(CCO)c2ccc(OC)cc2)n2nccc2n1 (stereo not given) | A: 0.979%; B: 0.5084%; C: -7.234%
* COc1cccc(N2CCN(Cc3cc(C)cc(F)c3)CC2=O)c1 | A: 7.152%; B: 2.935%; C: 1.108%

The values are deposited in ChEMBL (CHEMBL3988442, “University of Dundee, Small-Polar-MMV Screening Library” (2021)).